From US20240376556, “BIOSENSORS FOR DETECTING AND/OR NEUTRALIZING BIOAVAILABLE URANIUM AND RELATED U-SENSITIVE GENETIC MOLECULAR COMPONENTS, GENE CASSETTES, VECTORS, GENETIC CIRCUITS, COMPOSITIONS, METHODS AND SYSTEMS” (LAWRENCE LIVERMORE NATIONAL SECURITY, LLC, published 2024) come the findings set out here.

For part of these data: Results from cells or extracts need not show a direct contact. For part of these data: Protein sequences can lack the tags named with them.

For data set [1], the system named is T1, UzcR phosphorylated (UzcR-P) (Caulobacter crescentus NA1000).
T1 sequence (limits assumed): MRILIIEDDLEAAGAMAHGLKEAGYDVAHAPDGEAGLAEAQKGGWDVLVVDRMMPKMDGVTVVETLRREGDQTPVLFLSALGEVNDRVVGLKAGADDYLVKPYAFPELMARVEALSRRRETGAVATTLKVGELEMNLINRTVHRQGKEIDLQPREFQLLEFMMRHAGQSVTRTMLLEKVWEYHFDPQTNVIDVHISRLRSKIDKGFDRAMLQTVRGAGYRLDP
Nature of the data set: EMSA. The settings on record: purified recombinant protein, protein details: phosphorylated with carbamoyl phosphate, label: 5' 6-FAM.

Data set [2] relates to T2, UzcR, native in cells (Caulobacter crescentus NA1000).
T2 sequence (limits assumed): T1 sequence (limits assumed)
Nature of the data set: binding assay. The settings on record: ChIP-qRT-PCR in vivo, with or without 40 uM Zn, control region sodA, deltauzcR control; protein in cells; label: 5' 6-FAM. (In general: Real-time PCR tracks product formation cycle by cycle.)

In data set [3] the test system is UrpR (CCNA_01362, response regulator 1362) (Caulobacter crescentus NA1000). Nature of the data set: EMSA. The note with it: concentration dependent; 50 nM DNA, 200 mM NaCl, 10 mM MgCl2, 50 ug/ml poly-dI-dC, 37 C; purified recombinant protein; label: 5' fluorescein (6-FAM). In general terms: In EMSA bound probe runs differently from free probe, usually more slowly.

Data set [4] deals with T3, UrpR (CCNA_01362), native in cells (Caulobacter crescentus NA1000).
T3 sequence (limits assumed): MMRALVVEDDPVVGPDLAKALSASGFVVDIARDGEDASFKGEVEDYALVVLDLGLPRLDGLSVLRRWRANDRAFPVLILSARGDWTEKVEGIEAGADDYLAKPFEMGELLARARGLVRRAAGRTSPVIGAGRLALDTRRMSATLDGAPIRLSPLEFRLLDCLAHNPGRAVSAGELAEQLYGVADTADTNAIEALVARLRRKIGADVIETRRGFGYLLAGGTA
Nature of the data set: activity in cells. The note with it: U-dependent gfp induction; abolished by deletion of CCNA_01362; protein in cells.

The subject of data set [5] is T2, UzcR, native in cells (Caulobacter crescentus NA1000). Nature of the data set: activity in cells. The note with it: PurcB activity abolished by uzcR deletion; PurcB-gfp 111.5 fold with 20 uM U; protein in cells.

Regarding “CCCTTTGCAAACCATATACTCAAACGACCCAAGCAATATGGTCACAAAAACTTCAAACATTACAGACTGTTTAGAATATTAAAGCCCCGTAATTCTCTTAATTACGCGTCATGACTGAGGTGTAACGAGACTTCGCGAGAACCCGAATGTATCCAATATTCATCGGCGCAGCGAACAGCGCCCAGCCAGAGGGATACTTCA (double strand) [PurcA promoter]”, the binding result in data set [1] (shifted complexes) and in data set [2] was “binds” throughout. Take “CCGGACGGTGACCGGCAAACCACCGCTGTCATGAATGCGTTTTGAAGCTTCGCCATAACGCGCCTTGGGTATCCGGTTCGGAACGCGGCGCTTTCGTTGACCTCTGGCCACGGAGAATTCTCCATCCCAAAGAGGGTGTGGCCCAAAGAGGGTGTGGATTTCTCTTCGCGCCACCCGTTTCGTCAGCCGGACGTCAGGTCCAGACGGCTAAGCTAGCTGCGAGACATGAAAACGAGGGGCTCCGCC (double strand) [Pphyt promoter fragment]”: the binding result in data set [3] is reported as “binds”. Moreover, in data set [4], the “activity on this sequence” value is reported as “active”. “GAAGACCCAAGTTTTGCGGTTAATCATTTACGAAGACTGGGCGGGCAGCAGCCCACTCCCAAGCGCCCACCAATTATGACTTCTTTTTCATAGACTTAATTCGACGTCATGAAGCAGTCGTAACGGGTGTTCGCCATCCGACCGCTCTACATCCTCGATCAACGGATCGCCAAGCGACCACCCAAACCGAGGATCAAGACA (double strand) [PurcB promoter]”: in data set [5], the “activity on this sequence” value is listed as “active”.

On to “GCGGAGATGGATCGCGCGACGGGTCTGAAACAGAGTCAGTTGAGCCAGGCGTGCGGCGATGACTCCACGTTGTTGCCCCGCGGACTTTCCATTCCGCGCTGCCGTTAAATCCCCGTCATTACCGCAATTTAAGTGGTCTCTGGCCCTCCGTCGGTCCAAACCGTAACTCACACAGTCGCGTATGGACTGAACGGAGTAGTC (double strand) [P1968 promoter]”, for which, in data set [1] (shifted complex), the binding result is “binds”.
